Measured values published in patent publication EP0702683B1, “06-SUBSTITUTED GUANINE DERIVATIVES, A PROCESS FOR THEIR PREPARATION AND THEIR USE IN TREATING TUMOUR CELLS” (Cancer Research Technology Limited, priority 1993, dated 1994).
Some entries share one result that the patent states for a list of compounds.

molecular target: T1, ATase (Homo sapiens, UniProt P16455); test: In vitro ATase inactivation assay with purified recombinant human ATase; assay type: biochemical; design: made in house; settings: Table 4, in words
T1 sequence (P16455 1-207): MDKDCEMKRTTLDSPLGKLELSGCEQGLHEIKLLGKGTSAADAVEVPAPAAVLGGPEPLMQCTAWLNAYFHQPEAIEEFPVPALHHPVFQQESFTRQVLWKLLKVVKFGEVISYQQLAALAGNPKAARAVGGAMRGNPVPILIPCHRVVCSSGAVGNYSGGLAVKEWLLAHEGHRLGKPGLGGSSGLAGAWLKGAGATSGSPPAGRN
Experimental: The cDNA cloning and overexpression of the human ATase has been reported previously^23. Purification of the recombinant proteins was achieved either by affinity chromatography through a DNA-cellulose column as described by Wilkinson et al.,^25, 26, or by DEAE-cellulose ion-exchange chromatography. For the latter, the ATase protein was partially purified by ammonium sulphate precipitation (30 - 60%) and dialysed against 10 mM Tris-HCl pH 7.5, 1 mM DTT, 2 mM EDTA, 10% glycerol, before loading on a DEAF-cellulose column. The ATase was then eluted with a 0-0.1 M NaCl gradient.
Compounds to be tested were dissolved in DMSO to a final concentration of 10 mM and diluted just before use in buffer I containing 1 mg/ml bovine serum albumin (IBSA). Recombinant ATase was diluted in IBSA and titrated in order that the reaction be conducted under ATase, and not substrate, limiting conditions. In each assay, fixed amounts of ATase (60-75 fmol) were incubated with varying amounts of 0^6-benzylguanine, or test compound in a total volume of 200 µl of IBSA containing 10 µg of calf thymus DNA at 37°C for 1 hour. The [^3H]-methylated-DNA substrate (100 µl containing 6.7 µg of DNA and 100 fmol of 0^6-methylguanine) was added and incubation continued at 37° for 1 hour, until the reaction was completed. Following acid hydrolysis of the DNA as previously described^21 the [^3H]-methylated protein was recovered and quantitated by liquid scintillation counting. Samples were typically assayed in duplicate and experiments repeated several times. I50 is the concentration of inactivator required to produce a 50% reduction in ATase activity.

Compound	I50 values compared with that of BeG
Nc1nc(OCc2cccs2)c2nc[nH]c2n1 [B.4205, O^6-thenylguanine]	lower than that of BeG
Nc1nc(OCc2ccc(Br)s2)c2nc[nH]c2n1 [B.4269, O^6-(5-bromothenyl)guanine]	lower than that of BeG
Nc1nc(OCc2ccc3c(c2)OCO3)c2nc[nH]c2n1 [B.4212, O^6-piperonylguanine]	lower than that of BeG
N#Cc1ccc(COc2nc(N)nc3[nH]cnc23)o1 [B.4273, O^6-(5-cyanofurfuryl)guanine]	lower than that of BeG
Nc1nc(OCc2cc3ccccc3s2)c2nc[nH]c2n1 [B.4226, O^6-(2-benzo[b]thienylmethyl)guanine]	lower than that of BeG
Nc1nc(OCc2cc3ccccc3o2)c2nc[nH]c2n1 [B.4266, O^6-(2-benzofuranylmethyl)guanine]	lower than that of BeG
Nc1nc(OCc2ccsc2)c2nc[nH]c2n1 [B.4206, O^6-(3-thienylmethyl)guanine]	lower than that of BeG
Nc1nc(OCc2cncs2)c2nc[nH]c2n1 [B.4275, O^6-(5-thiazolylmethyl)guanine]	lower than that of BeG

system: ATase; test: Inactivation of ATase in mammalian cells, summary over cell lines; assay type: cell-based, human, rat and Chinese hamster; settings: Table 5
Experimental: Mammalian cells were cultured under standard conditions. For example, Raji (a human lymphoblastoid cell line from a Burkitt's lymphoma) cells were grown in suspension culture in RPMI medium supplemented with 10% horse serum. […]
Cells were diluted to 10^6/ml in culture medium containing either the appropriate concentration of inactivator or an equivalent volume of vehicle (DMSO). […] ATase activity was determined as described above, in duplicate sonicated cell extracts and expressed as the percentage activity remaining based on that present in the untreated controls (for example 350-450 fm/mg in Raji cells).

Compound	effectiveness relative to BeG in the cell lines used
Nc1nc(OCc2cccs2)c2nc[nH]c2n1 [B.4205, O^6-thenylguanine]	up to 7 times
Nc1nc(OCc2ccco2)c2nc[nH]c2n1 [B.4203, O^6-furfurylguanine]	up to 7 times
